# According to PMC5758779:
# Chains of the proteins cited; added tags and fusions are not shown.
# UniProt Q00444: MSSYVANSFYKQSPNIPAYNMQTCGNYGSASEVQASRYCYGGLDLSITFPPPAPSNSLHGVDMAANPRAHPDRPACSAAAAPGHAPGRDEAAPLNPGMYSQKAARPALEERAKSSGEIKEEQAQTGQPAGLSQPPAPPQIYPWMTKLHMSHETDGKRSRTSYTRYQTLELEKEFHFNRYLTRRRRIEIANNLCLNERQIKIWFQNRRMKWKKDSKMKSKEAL
# No constants are given. Whether binding was seen depends on the method and setting. In cells and extracts the contact can be indirect. Some entries that bind do so weakly or less than the wild type. For some assays here: Tags and fused reporters may be left off the sequences shown.
# B1: Flag-tagged Pbx4 (protein, UniProt Q9BYU1 1-374)
# chain: MAAPPRPAPSPPAPRRLDTSDVLQQIMAITDQSLDEAQARKHALNCHRMKPALFSVLCEIKEKTVVSIRGIQDEDPPDAQLLRLDNMLLAEGVCRPEKRGRGGAVARAGTATPGGCPNDNSIEHSDYRAKLSQIRQIYHSELEKYEQACREFTTHVTNLLQEQSRMRPVSPKEIERMVGAIHGKFSAIQMQLKQSTCEAVMTLRSRLLDARRKRRNFSKQATEVLNEYFYSHLNNPYPSEEAKEELARKGGLTISQVSNWFGNKRIRYKKNMGKFQEEATIYTGKTAVDTTEVGVPGNHASCLSTPSSGSSGPFPLPSAGDAFLTLRTLASLQPPPGGGCLQSQAQGSWQGATPQPATASPAGDPGSINSSTSN
# B2: in vitro translated and 35S-Methionine labeled Pbx4 (protein, UniProt Q9BYU1 1-374)
# chain: MAAPPRPAPSPPAPRRLDTSDVLQQIMAITDQSLDEAQARKHALNCHRMKPALFSVLCEIKEKTVVSIRGIQDEDPPDAQLLRLDNMLLAEGVCRPEKRGRGGAVARAGTATPGGCPNDNSIEHSDYRAKLSQIRQIYHSELEKYEQACREFTTHVTNLLQEQSRMRPVSPKEIERMVGAIHGKFSAIQMQLKQSTCEAVMTLRSRLLDARRKRRNFSKQATEVLNEYFYSHLNNPYPSEEAKEELARKGGLTISQVSNWFGNKRIRYKKNMGKFQEEATIYTGKTAVDTTEVGVPGNHASCLSTPSSGSSGPFPLPSAGDAFLTLRTLASLQPPPGGGCLQSQAQGSWQGATPQPATASPAGDPGSINSSTSN
# modifications: 35S-Methionine labeled
# B3: Flag-tagged Pbx2 (protein, UniProt P40425 1-430)
# chain: MDERLLGPPPPGGGRGGLGLVSGEPGGPGEPPGGGDPGGGSGGVPGGRGKQDIGDILQQIMTITDQSLDEAQAKKHALNCHRMKPALFSVLCEIKEKTGLSIRSSQEEEPVDPQLMRLDNMLLAEGVAGPEKGGGSAAAAAAAAASGGGVSPDNSIEHSDYRSKLAQIRHIYHSELEKYEQACNEFTTHVMNLLREQSRTRPVAPKEMERMVSIIHRKFSAIQMQLKQSTCEAVMILRSRFLDARRKRRNFSKQATEVLNEYFYSHLSNPYPSEEAKEELAKKCGITVSQVSNWFGNKRIRYKKNIGKFQEEANIYAVKTAVSVTQGGHSRTSSPTPPSSAGSGGSFNLSGSGDMFLGMPGLNGDSYSASQVESLRHSMGPGGYGDNLGGGQMYSPREMRANGSWQEAVTPSSVTSPTEGPGSVHSDTSN
# B4: Flag-tagged Pbx3 (protein, UniProt P40426 1-434)
# chain: MDDQSRMLQTLAGVNLAGHSVQGGMALPPPPHGHEGADGDGRKQDIGDILHQIMTITDQSLDEAQAKKHALNCHRMKPALFSVLCEIKEKTGLSIRGAQEEDPPDPQLMRLDNMLLAEGVSGPEKGGGSAAAAAAAAASGGSSDNSIEHSDYRAKLTQIRQIYHTELEKYEQACNEFTTHVMNLLREQSRTRPISPKEIERMVGIIHRKFSSIQMQLKQSTCEAVMILRSRFLDARRKRRNFSKQATEILNEYFYSHLSNPYPSEEAKEELAKKCSITVSQVSNWFGNKRIRYKKNIGKFQEEANLYAAKTAVTAAHAVAAAVQNNQTNSPTTPNSGSSGSFNLPNSGDMFMNMQSLNGDSYQGSQVGANVQSQVDTLRHVINQTGGYSDGLGGNSLYSPHNLNANGGWQDATTPSSVTSPTEGPGSVHSDTSN
# B5: in vitro translated and 35S-Methionine labeled Pbx2 (protein, UniProt P40425 1-430)
# chain: MDERLLGPPPPGGGRGGLGLVSGEPGGPGEPPGGGDPGGGSGGVPGGRGKQDIGDILQQIMTITDQSLDEAQAKKHALNCHRMKPALFSVLCEIKEKTGLSIRSSQEEEPVDPQLMRLDNMLLAEGVAGPEKGGGSAAAAAAAAASGGGVSPDNSIEHSDYRSKLAQIRHIYHSELEKYEQACNEFTTHVMNLLREQSRTRPVAPKEMERMVSIIHRKFSAIQMQLKQSTCEAVMILRSRFLDARRKRRNFSKQATEVLNEYFYSHLSNPYPSEEAKEELAKKCGITVSQVSNWFGNKRIRYKKNIGKFQEEANIYAVKTAVSVTQGGHSRTSSPTPPSSAGSGGSFNLSGSGDMFLGMPGLNGDSYSASQVESLRHSMGPGGYGDNLGGGQMYSPREMRANGSWQEAVTPSSVTSPTEGPGSVHSDTSN
# modifications: 35S-Methionine labeled
# What was measured:
# V5-tagged HoxC5 (human) = V5-tagged HoxC5 (human) (UniProt Q00444); test: co-IP; immunoprecipitation of V5-tagged HoxC5, Flag-tagged Pbx1-4 detected; HeLa cells
# [1] = molecular target: recombinant 6xHis-tagged HoxC5 (human) (UniProt Q00444); test: pull-down; in vitro binding assay: purified recombinant 6xHis-tagged HoxC5 from bacteria pulls down in vitro translated, 35S-Methionine labeled Pbx proteins; only the target purified
binding (V5-tagged HoxC5 (human)),binding [1],Binder
binds,,B1
,binds,B2
no binding,,B3
no binding,,B4
,no binding,B5
